# This is one part of the list. Further columns of the screen follow, without active or inactive calls. Most of these compounds were active or inconclusive in the main read-out, so they are no random draw. Potencies come from curve fits of mixed quality, noted in brackets.
# Assay: qHTS Assay for Lipid Storage Modulators in Drosophila S3 Cells;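 for cell number change: cells counted by Cell Tracker Red CMTPX staining in the red channel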
# Settings: BODIPY lipid droplet fluorescence, 18-24 h; for cell number change: measured here: cell count max response, cells fed with added oleic acid
# How it was run: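 Drosophila S3 cells got compounds at several concentrations plus oleic acid (400 uM solution). Laser-scanning cytometry with 488 nm excitation read lipid droplets at 500-530 nm and cells at 575-640 nm. Percent activity was relative to 20 uM Triacsin C.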
# [1] = measured here: cell number channel AC50, cells fed with added oleic acid
# [2] = measured here: lipid fluorescence (Fed channel) AC50, cells fed with added oleic acid
SMILES,cell number change [%],AC50 [1],AC50 [2]
COc1ccc(C(=O)CC(c2ccccc2)C2C(=O)CCCC2=O)cc1 (stereo not given),8.9,"0.00731 µM [rising, full curve, poor fit]",–
CCCSc1ccc([C@H]2N[C@@](C)(C(=O)OC)[C@H]3C(=O)N(C)C(=O)[C@@H]23)cc1,–,–,"13 µM [rising, partial curve, poor fit]"
O=C(OC(C(=O)NC1CCCCC1)c1ccccc1F)c1ccco1 (stereo not given),3.75,–,"0.00651 µM [falling, full curve, poor fit]"
C=CCn1c(SCC(=O)Nc2cc(C)nn2-c2ccccc2)nnc1C1CCCCC1,26.4,–,"0.326 µM [rising, full curve]"
CSc1n[nH]c(/N=C/c2oc(O)c3ccccc23)n1,-21,"6.51 µM [falling, single point]","25.9 µM [falling, single point]"
COc1ccc(C(=O)Sc2ccc(Cl)cc2)cc1OC,-25.5,–,"3.26 µM [falling, single point]"
CC1CCCCN1C(=O)C(=O)c1cn(CC(=O)N2CCCCCC2)c2ccccc12 (stereo not given),2.27,–,"2.91 µM [falling, partial curve]"
O=C(N/N=C/c1ccc(Br)cc1)c1ccccc1-n1cccc1,-16.2,–,–
CCOC(=O)C1C(c2ccc(O)c(O)c2)NC(=S)NC1(O)C(F)(F)F (stereo not given),2.22,"6.51 µM [rising, single point]",–
COc1cccc(OCC(=O)NC2CCS(=O)(=O)C2)c1 (stereo not given),121,"29.1 µM [rising, single point]","0.58 µM [rising, single point]"
COc1ccc(NS(=O)(=O)c2cc(NS(=O)(=O)c3cccs3)ccc2C)cc1,75,"29.1 µM [rising, single point]","0.00517 µM [falling, full curve, poor fit]"
CCCCNC(=O)c1ccc2c(c1)N(CC)C(=O)CS2,-39.6,"29.1 µM [falling, single point]",–
CCN(CC)CCNc1nc2ccccc2n1C,-7.05,–,–
CCOc1ccc(-c2n[nH]c(C)c2Oc2ccc(OC)cc2)c(O)c1,-85.8,"18.4 µM [falling, partial curve]",–
Cc1ccccc1OCCn1cc(/C(N)=N/O)c2ccccc21,1.43,"6.51 µM [falling, single point]",–
C(=N\n1cnnc1)/c1cccs1,-16,"4.61 µM [falling, single point]","1.64 µM [falling, partial curve]"
COCCSc1nc2c(c(=O)[nH]c(=O)n2C)n1CCCc1ccccc1,-13.2,–,–
N#CCCN(Cc1ccncc1)C(=S)NC1CC2C=CC1C2 (stereo not given),22.6,–,"13 µM [rising, partial curve, poor fit]"
O=C1CCCN1S(=O)(=O)c1ccc(F)cc1,-9.94,–,"6.51 µM [falling, single point]"
O=C(Nc1ccccc1C(F)(F)F)c1cc(-c2cccc(O)c2)on1,–,–,"0.146 µM [falling, full curve, poor fit]"

SMILES,cell number change [%],AC50 [1],AC50 [2]
CCc1[nH]nc(C(=O)NC2CCCc3c2cnn3-c2cc(C)cc(C)c2)c1C (stereo not given),-42.5,"7.31 µM [falling, partial curve]","5.17 µM [falling, full curve]"
CSc1ccc(/C=C(\NC(=O)c2ccc(C)cc2)C(=O)NN)cc1,18,–,"29.1 µM [rising, single point]"
O=C(CCNC(=O)C1CCN(S(=O)(=O)c2ccccc2)CC1)NCc1ccccn1,3.4,–,"11.6 µM [rising, partial curve]"
CC1(C(=O)NNC(=O)C2CCCCC2)CC1(Cl)Cl (stereo not given),-27.7,–,"2.31 µM [falling, partial curve, poor fit]"
O=C(C1CCN(S(=O)(=O)c2cccc3cccnc23)CC1)N1CC=C(c2ccccc2)CC1,4.5,–,"7.31 µM [rising, partial curve, poor fit]"
CCCCn1c(SCC(=O)NC(=O)Cc2ccccc2)nc2ccccc2c1=O,-12.3,–,"0.0164 µM [falling, full curve, poor fit]"
N#Cc1ccc(S(=O)(=O)N2CCC(C(=O)Nc3cccc(C(=O)NC4CC4)c3)CC2)cc1,6.83,–,"1.46 µM [rising, partial curve]"
O=C(NNC(=O)C1CCN(C(=O)Nc2ccccc2)CC1)c1ccc(F)cc1,29.7,–,"23.1 µM [rising, single point]"
CCCCNC(=O)c1onc(CSc2ccc(OC)cc2)c1C(=O)O,16.4,–,–
O=C(c1ccco1)N1CCN=C1SCc1ccccc1F,7.71,–,–
CCOC(=O)CNC(=O)CSc1nc2cccnc2n1C1CCCCC1,14.7,–,–
Cc1nn(CC(=O)NCc2ccccc2)c(=O)c2ccccc12,22.6,–,"0.651 µM [rising, single point]"
O=S(=O)(c1ccc(Cl)cc1)N1CCN(c2ccccn2)CC1,-9.71,–,"3.26 µM [falling, partial curve, poor fit]"
CC1CCN(c2nc3c(c(=O)[nH]c(=O)n3C)n2CCCc2ccccc2)CC1,109,"13 µM [rising, partial curve]","16.4 µM [rising, partial curve]"
O=C(NCC1(c2ccccc2)CCCC1)C(=O)N1CCOCC1,15.4,–,"7.31 µM [rising, partial curve, poor fit]"
Cc1ccc(C(=O)N2CCN(c3ccc(NC(=S)NC(=O)Cc4ccccc4)cc3)CC2)cc1,-36.1,"0.0259 µM [falling, full curve, poor fit]","6.51 µM [falling, partial curve, poor fit]"
C/C=C/c1ccc(OCC(=O)OCC(=O)Nc2c(C)nn(-c3ccccc3)c2C)c(OC)c1,14,–,–
C/C(Cn1nnc([N+](=O)[O-])n1)=N\NC(=O)c1ccc(O)cc1,3.94,–,–
O=C(c1ccc2nc(-c3ccco3)c(-c3ccco3)nc2c1)N1CCN(c2ccccc2)CC1,–,"0.326 µM [rising, full curve]","18.4 µM [rising, partial curve]"
O=C(Cn1cnc2c(nnn2Cc2ccc(Cl)cc2)c1=O)NCC1CCCO1 (stereo not given),–,"0.116 µM [falling, full curve, poor fit]",–

# 3 entries from above, sorted by SMILES length, low to high:
SMILES,cell number change [%],AC50 [1],AC50 [2]
Cc1nn(CC(=O)NCc2ccccc2)c(=O)c2ccccc12,22.6,–,"0.651 µM [rising, single point]"
C/C(Cn1nnc([N+](=O)[O-])n1)=N\NC(=O)c1ccc(O)cc1,3.94,–,–
CC1CCN(c2nc3c(c(=O)[nH]c(=O)n3C)n2CCCc2ccccc2)CC1,109,"13 µM [rising, partial curve]","16.4 µM [rising, partial curve]"

# Next compounds

SMILES,cell number change [%],AC50 [1],AC50 [2]
COc1cc(Cl)cc(NC(=O)CCN2CCN(C)CC2)c1,5.58,–,–
C=CCNC(=O)c1cc(Cl)ccn1,-42.8,–,–
COc1ccc(C2CC(=O)Oc3ccc(C(C)(C)C)cc32)cc1 (stereo not given),12,–,–
O=C(NCCO)c1ccc2[nH]c3ccccc3c2c1,–,"0.259 µM [rising, partial curve]","2.31 µM [rising, partial curve]"
CN1CC(c2ccccn2)C2(SC(=S)N(Cc3ccccc3)C2=O)C12C(=O)Nc1ccccc12 (stereo not given),-36.1,"32.6 µM [falling, single point]","3.26 µM [rising, partial curve, poor fit]"
O=[N+]([O-])c1ccc(O)c(/C=N\N=C2c3ccccc3-c3ccccc32)c1,-34.6,"7.31 µM [falling, partial curve]","0.164 µM [falling, full curve]"
C[C@H](NC(N)=O)C(=O)Nc1ccc(OCc2ccccc2)cc1,-62.8,"29.1 µM [falling, single point]","32.6 µM [falling, partial curve, poor fit]"
CC1CN(S(=O)(=O)c2ccc(C(=O)Nc3nc(-c4cc5ccccc5o4)cs3)cc2)CC(C)O1 (stereo not given),-34.1,"18.4 µM [falling, single point]","1.03 µM [falling, partial curve]"
O=C(NCCCn1ccnc1)c1nc(Cn2cc([N+](=O)[O-])cn2)no1,7.83,–,–
O=C(CCc1ccccc1)NN1C(=O)C2C3C=CC(O3)C2C1=O (stereo not given),98.7,–,–
Nc1cccc(C(=O)Nc2ccc3nc(-c4cccnc4)[nH]c3c2)c1,–,–,"1.64 µM [rising, full curve, poor fit]"
Nc1c(C(=O)C2CC2)sc2nc(-c3ccccc3)cc(C(F)(F)F)c12,-17.6,"6.51 µM [falling, single point]","4.61 µM [falling, full curve]"
O=C(/C=C/c1cccc([N+](=O)[O-])c1)N1CCN(Cc2ccc3c(c2)OCO3)CC1,33.9,"1.64 µM [rising, full curve]","18.4 µM [rising, partial curve]"
CCN1C(=O)[C@H]2[C@@H](c3ccc(C)cc3)N3C(=O)N(c4ccc(OC)cc4)C(=O)[C@@]3(C)[C@H]2C1=O,-5.83,–,–
COc1cc(CNc2ccc3[nH]c(=O)[nH]c3c2)cc(Br)c1OCc1ccccc1F,-37.7,"3.66 µM [falling, full curve, poor fit]","11.6 µM [falling, partial curve]"
O=C1N=C(N2CCOCC2)S/C1=C/c1ccc(-c2ccccc2Cl)o1,–,"1.46 µM [rising, partial curve]","3.66 µM [rising, single point]"
Cc1cc(NC(=O)C(C)SCC(=O)OCc2ccc(Cl)cc2Cl)no1 (stereo not given),-9.01,–,"7.31 µM [rising, partial curve, poor fit]"
COc1cc2c(cc1NC(=O)C(C)OC(=O)C1CC(=O)N(Cc3ccco3)C1)oc1ccccc12 (stereo not given),-0.4,–,"8.2 µM [falling, partial curve]"
Cc1ccc(C)c(NC(=O)c2nc(-c3ccccc3)n(-c3ccccc3)n2)c1,-9.57,"0.146 µM [rising, full curve]","0.259 µM [rising, full curve]"

# Source: PubChem BioAssay AID2685 (National Center for Advancing Translational Sciences (NCATS), 2010)
